Reference: PubChem BioAssay AID540256 (National Center for Advancing Translational Sciences (NCATS), 2011)
Hit rate of the full screen: of about 300,000 compounds, about 3,700 (1.2%) were called active. This list was built around the results that the source calls inconclusive (neither active nor inactive); the mix of calls is not that of the screen. Calls come from the whole dose curve; tested in HEK293 cells. Where the call is inconclusive, the potency comes from a doubtful curve fit.
% is set by controls: 0 for no effect and ±100 for the full control effect; potency is the fitted concentration of half-maximal effect.

Test: qHTS for Inhibitors of binding or entry into cells for Lassa Virus; note: nearly all actives have a fitted effect of over 50% in size
Settings: Lassa virus pseudotype entry inhibition, cell reporter; activity change, negative = inhibition: at 37.9 µM (top of the series) unless noted
With `O=C(c1ccccc1)N1CCN(C(=O)c2nn3c(C(F)(F)F)cc(-c4ccco4)nc3c2Cl)CC1` the “activity change, negative = inhibition” value was inactive: -6.46% [at 46.1 µM]. For `COc1cc(O)ccc1-c1nc2cc(C)ccn2c1Nc1ccccc1C`, the Potency was inconclusive: 35.5 µM [inhibitor, partial curve, poor fit]. With `Cc1ccc(O)c(Nc2c3ccccc3nc3ccccc23)c1` the Potency was inconclusive: 0.891 µM [inhibitor, single point]. In the case of `COc1ccc(CCC(C)NC2C3CC4CC(C3)CC2C4)cc1` (stereo not drawn), the Potency is reported as inconclusive: 29.1 µM [inhibitor, single point]. With `Cc1nn(C(C)C)c(C)c1CN1CCCC(C(=O)c2cccc(OC(C)C)c2)C1` (stereo not drawn) the Potency was inconclusive: 28.2 µM [inhibitor, partial curve, poor fit]. With `O=C(Nc1ccc(Oc2ccc(C(=O)O)c(C(=O)O)c2)cc1)c1cccs1` the “activity change, negative = inhibition” value was inactive: -1.88%. In the case of `CCOc1ccc(NC(=O)CSc2nnc(-c3ccco3)n2C)cc1`, the “activity change, negative = inhibition” value is reported as inactive: 12.4%. With `O=C(c1cc2c([nH]c1=O)CCCC2)N1CCc2c([nH]c3ccccc23)C1c1ccccc1F` (stereo not drawn) the Potency was inconclusive: 7.94 µM [inhibitor, partial curve, poor fit]. With `CCOc1cc(/C=C2/NC(=O)N(CC(=O)Nc3cccc(C)c3)C2=O)ccc1OC` the Potency was inconclusive: 14.1 µM [inhibitor, partial curve, poor fit]. With `CC1(C)CC(=O)C=C(NNC(=O)C2CCCCC2)C1` the Potency was inconclusive: 0.398 µM [inhibitor, single point]. With `COCCN(C(=O)COC(=O)Cc1cccc(OC)c1)c1c(N)n(Cc2ccccc2)c(=O)[nH]c1=O` the Potency was inconclusive: 0.178 µM [inhibitor, single point]. For `C[n+]1c2n(c3ccccc31)N=C(c1ccc(Br)cc1)CS2`, the Potency was inconclusive: 29.1 µM [inhibitor, single point]. With `O=C(Cn1cnc2ccccc2c1=O)c1ccc2c(c1)OCCO2` the Potency was inconclusive: 1.12 µM [activator, full curve]. In the case of `COc1ccc(C=NNC(=S)Nc2ccc(F)cc2)cc1OC`, the Potency is reported as inconclusive: 1.58 µM [inhibitor, full curve, poor fit]. With `NC1=NN=C(c2ccc3c(c2)OCCO3)CS1` the Potency was active: 7.08 µM. For `O=C(NCc1ccc2c(c1)OCO2)c1ccc(S(=O)(=O)C(F)F)cc1`, the Potency was inconclusive: 35.5 µM [activator, single point]. With `S=c1[nH]nc(COc2ccccc2)n1/N=C/c1cccc(Br)c1` the Potency was inconclusive: 6.31 µM [inhibitor, full curve]. In the case of `Cc1ccc2c(=O)cc(C(=O)Nc3ccc(S(=O)(=O)N4CCCCC4)cc3)oc2c1`, the “activity change, negative = inhibition” value is reported as inactive: 2.93% [at 46.1 µM]. With `Cc1cccc(Oc2sc(C(=O)c3ccccc3)c(N)c2C#N)c1` the Potency was active: 1.58 µM. With `COc1ccc(/C=N/NC(=O)CNS(=O)(=O)c2ccc(C)cc2)cc1` the Potency was inconclusive: 7.08 µM [inhibitor, partial curve]. With `O=C(COC(=O)c1cc([N+](=O)[O-])ccc1N1CCOCC1)Nc1ccccc1OC(F)F` the Potency was inconclusive: 35.5 µM [inhibitor, single point]. With `COc1ccc2c(CN3CCOCC3)cc(=O)oc2c1` the Potency was inconclusive: 31.5 µM [activator, single point]. With `Cc1nnc(SCc2cc(=O)oc3ccc4ccccc4c23)n1Cc1ccccc1` the Potency was inconclusive: 15.8 µM [inhibitor, partial curve, poor fit]. With `CCN(CC)CCN1C(=O)C(=O)/C(=C(/O)c2c(C)[nH]c(C(=O)OC)c2C)C1c1cccnc1` (stereo not drawn) the Potency was inconclusive: 1.64 µM [inhibitor, partial curve, poor fit]. With `CCc1cccc2c1NC(=O)C2=O` the Potency was inconclusive: 20 µM [activator, single point]. With `CCOc1ccc(C(=O)Nc2nc(-c3ccc(Br)cc3)ns2)cc1` the “activity change, negative = inhibition” value was inactive: 26.9% [at 46.1 µM]. For `Cc1cc(OC(=O)c2c(Cl)cccc2Cl)nc(C)n1`, the Potency was inconclusive: 0.184 µM [inhibitor, full curve, poor fit]. In the case of `COc1ccc(NC(=O)Cn2c(SCc3ccc(F)cc3)nc3cccnc32)c(OC)c1`, the “activity change, negative = inhibition” value is reported as inactive: 24.7% [at 46.1 µM]. For `COC(=O)c1ccc(C)c(NC(=O)c2ccc(Cl)c([N+](=O)[O-])c2)c1`, the Potency was inconclusive: 23.1 µM [inhibitor, single point]. For `CCOC(=O)Nc1ccc2c(c1)C(=NO)c1ccccc1-2`, the “activity change, negative = inhibition” value was inactive: -17.8% [at 46.1 µM]. In the case of `CCOc1ccc(NC(=O)CCNS(=O)(=O)c2ccc3c(c2)c(=O)n(C)c(=O)n3C)cc1`, the “activity change, negative = inhibition” value is reported as inactive: -10.7% [at 14.3 µM]. For `Cc1cc(C)cc(NC(=O)c2sc3nc4n(c(=O)c3c2C)N=C(c2ccc(F)cc2)CS4)c1`, the “activity change, negative = inhibition” value was inactive: 20.6% [at 46.1 µM]. For `Cc1nc(SCc2ccccc2Cl)c(C#N)c(C)c1C`, the Potency was inconclusive: 7.08 µM [inhibitor, partial curve, poor fit]. For `Cn1c(SCC(=O)N2CCc3ccccc3C2)nnc1-c1ccncc1`, the Potency was inconclusive: 12.6 µM [activator, single point]. In the case of `FC(F)(F)c1ccc(N2CCOCC2)c(Nc2nc3ccccc3n3cnnc23)c1`, the Potency is reported as inconclusive: 32.6 µM [inhibitor, single point]. For `Cc1ccc(NN=C2c3ccccc3-c3ccccc32)cc1`, the Potency was inconclusive: 35.5 µM [activator, single point]. In the case of `Cc1nn(Cc2ccc(C(=O)Nc3ccccc3C(F)(F)F)o2)c(C)c1Br`, the Potency is reported as inconclusive: 29.1 µM [inhibitor, single point]. For `CC1CN(C(=O)c2ccc(COc3ccccc3Cl)o2)CC(C)O1` (stereo not drawn), the Potency was inconclusive: 35.5 µM [inhibitor, single point]. With `CCCC(=O)NC(c1ccc(C(C)C)cc1)c1ccc2cccnc2c1O` (stereo not drawn) the Potency was active: 4.47 µM. With `Cc1cc(NC(=O)CSc2ccc(-c3nc4cc(C)c(C)cc4[nH]3)cn2)no1` the “activity change, negative = inhibition” value was inactive: -2.19%. In the case of `O=S(=O)(c1ccccc1)C1(S(=O)(=O)c2ccccc2)CCCC1`, the Potency is reported as inconclusive: 4.11 µM [activator, partial curve]. In the case of `Cc1cccc(NC(=O)c2ccccc2-c2ccccc2)c1`, the “activity change, negative = inhibition” value is reported as inactive: 3.05%. For `COc1cccc(N2CCN(CC(=O)Nc3ccc(S(=O)(=O)N4CCCCCC4)cc3)CC2)c1`, the Potency was inconclusive: 11.2 µM [inhibitor, partial curve, poor fit].
